Results reported in the supplement of paper PMC5949888.
Most values lie at the floor of the assay. Slopes are relative: functional sequences can read slightly below zero.

The substances below were run on Saccharomyces cerevisiae PS128 hsf1 delta, HSF1(1-493) fusion (assay: growth estimate (transactivation domain function in HSF1 fusion, heat-shock survival) (a.u. (slope of normalised read count over time)); higher = stronger growth at 37°C, i.e. more transactivation activity). Settings: library: random library.

Row | Substance | growth estimate
1 | DVGGLLRRRRAGDSLSRGGW | < -0.25
2 | VEIEM | < -0.25
3 | SSTRDGFNG | < -0.25
4 | KPPES | < -0.25
5 | RIIGLRRKSPGLFS | < -0.25
6 | RRMTRPAGHT | < -0.25
7 | RFAVGLRAATRQISVEQG | < -0.25
8 | MSYRHSPLTGKRCSGSQQSH | < -0.25
9 | QED | < -0.25
10 | QRRKGRCYYSML | < -0.25
11 | HQADLICRRRHPRAIR | < -0.25
12 | IRLFRIECSHGARQGPRPLV | < -0.25
13 | RGQQGT | < -0.25
14 | SGL | < -0.25
15 | AQAD | < -0.25
16 | VSEGGD | < -0.25
17 | GLACLARVAIGGFIGAITRV | < -0.25
18 | EQSRKECWVSKATAIRLVPS | < -0.25
19 | EALPSAQ | < -0.25
20 | WSNGLPIAVTLTAGKGRLLL | < -0.25
21 | QAYNHPEYAAKGVRIRWCYT | < -0.25
22 | RGEYDYGGESTEQ | < -0.25
23 | ARKSGTMSPGVEYSTAT | < -0.25

Row | Substance | growth estimate
24 | EELPHSPVKLQGRRLI | < -0.25
25 | GGTKSQIMHEWNCR | < -0.25
26 | PEGGHTTQLRIVRGLLTGVR | < -0.25
27 | PVKGHGCPDGLGSKLWVYPA | < -0.25
28 | LVRCGVVFADSPWNAILSFG | < -0.25
29 | VSQTQRLS | < -0.25
30 | SGEAILKPVRANDSTEKTVS | < -0.25
31 | GAPNLLTVKEDWNGIRIAFF | < -0.25
32 | GTDMILILGASLFGDALPAK | < -0.25
33 | APWLTSAATPVRQGG | < -0.25
34 | CLHVKVVHVNHKRLWWILST | < -0.25
35 | SRIQLYGLSLHTLAGLRLPR | < -0.25
36 | NGVSKRGEHR | < -0.25
37 | GRICNESIARLSGAIPYCGF | < -0.25
38 | RKGKMSCFYPSRCETGHACI | < -0.25
39 | LPGGSLTRHGLFVGASLRNS | < -0.25
40 | YGCATSVKKGCLLSGGQETQ | -0.245
41 | AVTKGTRHSRSQNGARTSSM | < -0.25
42 | GSC | < -0.25
43 | RSYARSRWRMGKYLSERAVP | < -0.25
44 | EGGQIP | < -0.25
45 | RVWG | -0.246
46 | LLCLNVAGSSIQDRNAITDE | < -0.25

Row | Substance | growth estimate
47 | HMNVLEATCIAPPGHLDNRR | < -0.25
48 | GGMVRYTWASM | < -0.25
49 | GNGLRSDCRQSLNKQGTTAA | < -0.25
50 | RPENDVSA | < -0.25
51 | MRL | < -0.25
52 | RTRHCVRDGTFGAGKSPGRT | < -0.25
53 | WAPDPEAHRIYPIMRK | < -0.25
54 | DRARSYSGRVYRSVGGSS | < -0.25
55 | DTLGKL | < -0.25
56 | VTHDGPTRFAGHDLDLTARR | < -0.25
57 | LGFFGNFMEVRPHSGDITRK | 0.417
58 | VCGRQSEELGTSKLWTGNVS | < -0.25
59 | HTLLGRRSAGRSVSSSIIVY | < -0.25
60 | RPIHIMFSANLDLPPGARGT | < -0.25
61 | TYHVGALARTASSLPSEVPT | < -0.25
62 | LGLLQWVDPQRRSLLVILHL | < -0.25
63 | PPRIPIVPVPA | < -0.25
64 | RSPGTFDDRPKSDLG | < -0.25
65 | PCVARFHGR | < -0.25
66 | PRGARGRSVYPQNQPMVRGS | < -0.25
67 | HSMPMRDLSAEGP | < -0.25
68 | KKRRIGGHSYCPTGLVRA | -0.241
69 | GHRWILICDRYLLGWLASPS | < -0.253

Some of the entries so far, comma-delimited:
Row,Substance,growth estimate
50,RPENDVSA,< -0.25
51,MRL,< -0.25
52,RTRHCVRDGTFGAGKSPGRT,< -0.25
53,WAPDPEAHRIYPIMRK,< -0.25

Going on with the list:

Row | Substance | growth estimate
70 | YPPVRIQLAIHC | < -0.25
71 | YDSRSYGVLAILAR | < -0.25
72 | ISPHVDGTSTKLPTDCTRAQ | -0.246
73 | HEGIRCHEDVLSPCMSTHQL | < -0.25
74 | ISAYDRDGR | < -0.25
75 | VTANGGIVESIPDISVPDRA | < -0.25
76 | NVRMLTSSEKGLELTVAL | < -0.25
77 | LGRKSARRGYFRVGGFEKPA | < -0.25
78 | HTD | < -0.25
79 | RPSTWTIGILPTTQSKCVFL | < -0.25
80 | YSPSPKDSVRTSRLCGNGIF | < -0.25
81 | ASVIHPAGLLSQLGYLDRIH | < -0.25
82 | IDGIA | < -0.25
83 | RRTGTQ | < -0.25
84 | RNGMLTEAPPSFGWCGDTRV | < -0.25
85 | VLY | < -0.25
86 | WCEIVGMELCVLDAGWVPGP | < -0.25
87 | AQS | < -0.25
88 | LLDSEAGS | < -0.25
89 | KSGHLLRGLSGNIGTWKWNT | -0.193
90 | MSWGTRLRTGVHKFQGRGA | < -0.25
91 | EHALCSLSNRLREWATQVAS | < -0.25
92 | GYRPATWWSADGRLCYIRIP | < -0.25

Row | Substance | growth estimate
93 | DGGNMGSTVWS | < -0.25
94 | KDAGCGIVSEQNGPEVTESQ | < -0.25
95 | HRPRDNLLSRSNGAGKLRIS | < -0.25
96 | TTGS | -0.241
97 | KLHAFQSIAR | -0.245
98 | DSTVIVEEGLGG | < -0.25
99 | QERLCTAVYASSFAFHLDIH | < -0.25
100 | LQQWVFI | < -0.25
101 | KVSAGGVCHPACNIGPAFQG | < -0.25
102 | LGLVRVCCMGVCTSESWSVI | < -0.25
103 | FHEGL | < -0.25
104 | DFAIVSTSAVKRNNCRAPAP | < -0.25
105 | VRATRV | < -0.25
106 | SLVSILKSDIPLVPACDFGT | < -0.25
107 | QVLVDQEGGRNGSVLVLSSR | < -0.25
108 | SRRSFGTASGVAPARY | < -0.25
109 | DKIS | < -0.25
110 | LAFG | < -0.25
111 | YCAMDATRRLRASTDCRIFH | < -0.25
112 | MKSDSGNRVLRSRLQYTPYM | < -0.25
113 | FPDSTAWTAWWVGQYRTKHA | -0.25
114 | RLGDSHVSASLGERDHLLW | -0.229
115 | SQRPDAIAWSV | < -0.25

Row | Substance | growth estimate
116 | GNS | < -0.25
117 | FSDSSPTSMRT | < -0.25
118 | VGLD | < -0.25
119 | VQPHAIERAGYVYAYGTITR | < -0.25
120 | GVYLLNPGSRCWPTATGCSL | < -0.25
121 | GTRLRSVNSTSVLAE | < -0.25
122 | ELSVQAQRPAFDSSSGVTFA | < -0.25
123 | THCHSLSHVLKSVCPR | < -0.25
124 | WTEGATGTRVRWHLSAGGK | < -0.25
125 | FRLS | < -0.25
126 | EYHCVGEP | < -0.25
127 | NTRYMTLEGVRI | -0.0907
128 | KRIEKAVRLTCL | < -0.25
129 | DDAK | < -0.25
130 | HAREGLTRTGRARRACISSL | < -0.25
131 | SCKLALAAAGHVPRFYLNPD | -0.25
132 | KSLNMDRSDLYVRDGGLRDR | < -0.25
133 | PCRSLLGWRAIPSLLRSRLE | < -0.25
134 | IPPRFPHMRGPF | < -0.25
135 | KSGDDYLGGRWRATSHTRAP | -0.229
136 | NGTPSRYSPW | < -0.25
137 | DMLCTECQDKGAGQLFWSAL | < -0.25
138 | ERVFSLEDPYRDGPNITLWT | < -0.25

An excerpt of these results, in CSV form:
Row,Substance,growth estimate
100,LQQWVFI,< -0.25
101,KVSAGGVCHPACNIGPAFQG,< -0.25
102,LGLVRVCCMGVCTSESWSVI,< -0.25
103,FHEGL,< -0.25
104,DFAIVSTSAVKRNNCRAPAP,< -0.25
105,VRATRV,< -0.25
106,SLVSILKSDIPLVPACDFGT,< -0.25
108,SRRSFGTASGVAPARY,< -0.25
109,DKIS,< -0.25
110,LAFG,< -0.25
111,YCAMDATRRLRASTDCRIFH,< -0.25
112,MKSDSGNRVLRSRLQYTPYM,< -0.25
113,FPDSTAWTAWWVGQYRTKHA,-0.25
114,RLGDSHVSASLGERDHLLW,-0.229
115,SQRPDAIAWSV,< -0.25
116,GNS,< -0.25
117,FSDSSPTSMRT,< -0.25
118,VGLD,< -0.25
119,VQPHAIERAGYVYAYGTITR,< -0.25
121,GTRLRSVNSTSVLAE,< -0.25
122,ELSVQAQRPAFDSSSGVTFA,< -0.25
123,THCHSLSHVLKSVCPR,< -0.25
124,WTEGATGTRVRWHLSAGGK,< -0.25
125,FRLS,< -0.25
126,EYHCVGEP,< -0.25
127,NTRYMTLEGVRI,-0.0907
128,KRIEKAVRLTCL,< -0.25
129,DDAK,< -0.25
130,HAREGLTRTGRARRACISSL,< -0.25
131,SCKLALAAAGHVPRFYLNPD,-0.25
132,KSLNMDRSDLYVRDGGLRDR,< -0.25
134,IPPRFPHMRGPF,< -0.25
135,KSGDDYLGGRWRATSHTRAP,-0.229
136,NGTPSRYSPW,< -0.25
137,DMLCTECQDKGAGQLFWSAL,< -0.25
138,ERVFSLEDPYRDGPNITLWT,< -0.25

Continued:

Row | Substance | growth estimate
139 | KNGRHW | < -0.25
140 | AVMVP | < -0.25
141 | HFAALSNSCSDMGILHLAPA | < -0.25
142 | QDW | < -0.25
143 | NNESKVVNHC | < -0.25
144 | FSPRPVCTGRDHIVCRESVF | < -0.25
145 | VHSWGVLG | < -0.25
146 | YYHLCLCHPY | < -0.25
147 | IYVALQGPRLSSGSFKSCYE | < -0.25
148 | LPGSPRTQPAFALQVELPTI | < -0.25
149 | REIHDCAAGRPNWRPTRQDA | < -0.25
150 | VIGHGAPYGILQQCPAVYTI | < -0.25
151 | GSIAIRCLTRGSVCQ | < -0.25
152 | IRWGCLSFVIGSS | < -0.25
153 | IHLAVRQVCMGPRN | < -0.25
154 | KNGRKHDTHKSVTRFHPHGS | < -0.25
155 | RGHGAVYCPPARAEGLSTTS | < -0.25
156 | EKVIRNRTQSAA | < -0.25
157 | GCWYVVSKTFHQRMCNGDQS | < -0.25
